From PMC10716017
No constants are given. Whether binding was seen depends on the method and setting. Binding seen in cells or lysates may run through a third protein. Some results given as binding are weak or reduced against the parent protein; the word gives no strength.

Amino acid sequences for entries named in this document (tags omitted).
UniProt P58854: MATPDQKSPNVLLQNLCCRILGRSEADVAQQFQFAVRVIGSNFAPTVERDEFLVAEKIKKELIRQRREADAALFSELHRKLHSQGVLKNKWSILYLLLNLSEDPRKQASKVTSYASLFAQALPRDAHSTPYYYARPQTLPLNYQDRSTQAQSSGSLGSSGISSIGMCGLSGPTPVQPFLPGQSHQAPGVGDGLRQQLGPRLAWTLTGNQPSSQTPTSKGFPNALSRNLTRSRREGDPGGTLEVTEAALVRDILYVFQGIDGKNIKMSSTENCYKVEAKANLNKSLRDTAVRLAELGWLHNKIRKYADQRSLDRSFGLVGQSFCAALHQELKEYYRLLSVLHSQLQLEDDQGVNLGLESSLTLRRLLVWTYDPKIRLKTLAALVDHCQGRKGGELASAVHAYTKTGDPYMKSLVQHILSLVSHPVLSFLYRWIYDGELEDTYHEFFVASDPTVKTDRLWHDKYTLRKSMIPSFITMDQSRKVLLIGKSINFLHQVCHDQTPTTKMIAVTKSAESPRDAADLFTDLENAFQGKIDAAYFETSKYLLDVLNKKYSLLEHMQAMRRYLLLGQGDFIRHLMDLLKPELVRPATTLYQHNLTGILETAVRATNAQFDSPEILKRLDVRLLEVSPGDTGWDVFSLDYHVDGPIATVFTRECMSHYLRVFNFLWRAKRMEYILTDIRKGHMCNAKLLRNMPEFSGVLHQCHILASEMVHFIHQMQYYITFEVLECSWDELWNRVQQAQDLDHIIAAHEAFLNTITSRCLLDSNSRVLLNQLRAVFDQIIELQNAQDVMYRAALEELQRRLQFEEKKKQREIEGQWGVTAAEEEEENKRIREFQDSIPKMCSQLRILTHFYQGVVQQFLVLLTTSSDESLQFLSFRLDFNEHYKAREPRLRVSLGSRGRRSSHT
UniProt P17426: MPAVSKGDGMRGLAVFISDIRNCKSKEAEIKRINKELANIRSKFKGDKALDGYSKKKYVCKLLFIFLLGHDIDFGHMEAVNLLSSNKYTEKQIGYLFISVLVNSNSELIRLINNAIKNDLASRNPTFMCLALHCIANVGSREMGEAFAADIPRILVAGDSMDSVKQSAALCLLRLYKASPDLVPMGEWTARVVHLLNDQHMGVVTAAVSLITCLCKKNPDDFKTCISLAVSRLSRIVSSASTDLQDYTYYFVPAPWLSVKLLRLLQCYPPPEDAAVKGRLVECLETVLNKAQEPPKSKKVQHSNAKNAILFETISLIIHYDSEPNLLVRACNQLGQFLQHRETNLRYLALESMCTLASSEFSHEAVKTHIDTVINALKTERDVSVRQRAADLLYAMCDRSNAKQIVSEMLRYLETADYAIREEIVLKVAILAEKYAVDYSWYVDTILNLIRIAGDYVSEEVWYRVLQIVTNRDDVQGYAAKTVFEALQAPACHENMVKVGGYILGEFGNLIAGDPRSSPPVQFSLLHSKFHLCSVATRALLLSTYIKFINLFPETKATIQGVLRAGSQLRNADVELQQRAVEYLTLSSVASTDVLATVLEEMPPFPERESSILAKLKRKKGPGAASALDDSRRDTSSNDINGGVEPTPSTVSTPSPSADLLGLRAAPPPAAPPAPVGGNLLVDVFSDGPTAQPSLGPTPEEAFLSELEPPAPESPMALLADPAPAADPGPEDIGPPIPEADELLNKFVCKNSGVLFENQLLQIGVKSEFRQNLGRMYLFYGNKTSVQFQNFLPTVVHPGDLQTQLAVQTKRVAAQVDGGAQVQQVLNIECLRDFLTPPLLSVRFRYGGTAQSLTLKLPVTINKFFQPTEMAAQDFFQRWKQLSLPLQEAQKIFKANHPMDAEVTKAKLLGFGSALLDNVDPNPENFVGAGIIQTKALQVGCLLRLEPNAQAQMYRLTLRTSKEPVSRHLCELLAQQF
UniProt Q921G8: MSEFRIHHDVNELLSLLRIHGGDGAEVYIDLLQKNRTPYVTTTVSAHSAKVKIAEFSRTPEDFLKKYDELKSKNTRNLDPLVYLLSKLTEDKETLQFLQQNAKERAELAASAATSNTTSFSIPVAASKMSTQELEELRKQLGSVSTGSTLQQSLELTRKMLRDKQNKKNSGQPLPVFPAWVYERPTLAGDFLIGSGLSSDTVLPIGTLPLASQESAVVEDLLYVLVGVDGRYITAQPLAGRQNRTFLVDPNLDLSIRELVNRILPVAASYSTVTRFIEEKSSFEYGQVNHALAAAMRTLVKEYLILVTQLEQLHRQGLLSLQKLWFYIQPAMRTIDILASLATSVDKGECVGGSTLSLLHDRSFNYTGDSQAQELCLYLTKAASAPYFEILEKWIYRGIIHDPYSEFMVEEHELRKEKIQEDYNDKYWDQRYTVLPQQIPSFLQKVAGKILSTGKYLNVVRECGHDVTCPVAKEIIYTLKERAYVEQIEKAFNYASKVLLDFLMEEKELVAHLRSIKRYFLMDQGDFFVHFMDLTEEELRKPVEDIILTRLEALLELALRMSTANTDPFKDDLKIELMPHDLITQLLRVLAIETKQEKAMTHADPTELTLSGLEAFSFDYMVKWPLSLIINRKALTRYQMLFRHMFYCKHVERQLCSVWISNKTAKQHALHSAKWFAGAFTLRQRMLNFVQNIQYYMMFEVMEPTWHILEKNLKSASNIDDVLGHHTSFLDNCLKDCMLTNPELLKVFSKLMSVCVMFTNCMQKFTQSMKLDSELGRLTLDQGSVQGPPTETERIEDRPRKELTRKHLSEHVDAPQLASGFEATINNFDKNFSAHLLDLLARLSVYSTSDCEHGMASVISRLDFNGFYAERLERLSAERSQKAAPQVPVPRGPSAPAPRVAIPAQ
UniProt Q9D4F8: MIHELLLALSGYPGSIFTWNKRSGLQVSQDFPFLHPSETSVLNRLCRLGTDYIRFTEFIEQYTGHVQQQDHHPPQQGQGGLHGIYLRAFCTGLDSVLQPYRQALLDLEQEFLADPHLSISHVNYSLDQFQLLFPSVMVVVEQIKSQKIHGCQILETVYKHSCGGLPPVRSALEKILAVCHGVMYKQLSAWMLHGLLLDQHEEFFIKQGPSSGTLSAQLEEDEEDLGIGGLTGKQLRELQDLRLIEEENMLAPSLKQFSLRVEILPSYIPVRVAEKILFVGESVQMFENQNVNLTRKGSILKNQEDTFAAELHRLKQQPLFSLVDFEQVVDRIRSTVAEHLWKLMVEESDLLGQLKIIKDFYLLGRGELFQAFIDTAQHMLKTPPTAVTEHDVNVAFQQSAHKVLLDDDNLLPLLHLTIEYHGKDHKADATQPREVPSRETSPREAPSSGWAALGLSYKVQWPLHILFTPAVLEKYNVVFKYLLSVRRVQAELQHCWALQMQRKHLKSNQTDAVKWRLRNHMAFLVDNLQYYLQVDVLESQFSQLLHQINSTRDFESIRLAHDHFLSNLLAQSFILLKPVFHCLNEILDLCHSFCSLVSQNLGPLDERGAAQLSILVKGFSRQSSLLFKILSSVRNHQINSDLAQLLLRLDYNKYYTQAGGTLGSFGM

Tests used:
[1] = molecular target: GCP3 component of γ-TuRC (mouse (endogenous in cortex)) (UniProt P58854); experiment: co-IP; endogenous proteins, cortex lysate of 8-wk-old mice; antibody-coated Dynabeads Protein G, IgG as control; Co-IP buffer (50 mM Tris-HCl pH 7.4, 100 mM NaCl, 1% NP-40, 2 mM MgCl2), overnight at 4°C; detection by immunoblot
[2] = molecular target: AP-2α subunit of the AP-2 complex (mouse (endogenous in cortex)) (UniProt P17426); experiment: as above
[3] = molecular target: GCP2 component of γ-TuRC (mouse (endogenous in cortex)) (UniProt Q921G8); experiment: as above
[4] = molecular target: GCP2 component of γ-TuRC (mouse (endogenous in cortex)) (UniProt Q921G8); experiment: co-IP; endogenous proteins, embryonic mouse cortex lysate (E12.5 / E12-14 in results and legends, E14-15 in the methods); antibody-coated Dynabeads Protein G, IgG as control; Co-IP buffer (50 mM Tris-HCl pH 7.4, 100 mM NaCl, 1% NP-40, 2 mM MgCl2), overnight at 4°C; detection by immunoblot
[5] = molecular target: AP-2α subunit of the AP-2 complex (mouse (endogenous in cortex)) (UniProt P17426); experiment: as above

| binding [1] | binding [2] | binding [3] | binding [4] | binding [5] | Substance |
| --- | --- | --- | --- | --- | --- |
| binds | binds | – | – | – | GCP2 component of γ-TuRC (from UniProt Q921G8 1-905) |
| binds | – | binds | binds | – | AP-2α subunit of the AP-2 complex (from UniProt P17426 1-977) |
| – | – | – | – | binds | GCP4 component of γ-TuRC (from UniProt Q9D4F8 1-667) |
| – | binds | – | – | binds | GCP3 component of γ-TuRC (from UniProt P58854 1-905) |
